In article PMC11347561:
Results are given in words; binding and its absence hold for the method and conditions named. Binding seen in cells or lysates may run through a third protein. Here binding means that the protein was enriched with, or labelled near, the bait; the list need not be complete.

By UniProt entry, the sequences of proteins in these tests, tags left out.
UniProt Q96MN2: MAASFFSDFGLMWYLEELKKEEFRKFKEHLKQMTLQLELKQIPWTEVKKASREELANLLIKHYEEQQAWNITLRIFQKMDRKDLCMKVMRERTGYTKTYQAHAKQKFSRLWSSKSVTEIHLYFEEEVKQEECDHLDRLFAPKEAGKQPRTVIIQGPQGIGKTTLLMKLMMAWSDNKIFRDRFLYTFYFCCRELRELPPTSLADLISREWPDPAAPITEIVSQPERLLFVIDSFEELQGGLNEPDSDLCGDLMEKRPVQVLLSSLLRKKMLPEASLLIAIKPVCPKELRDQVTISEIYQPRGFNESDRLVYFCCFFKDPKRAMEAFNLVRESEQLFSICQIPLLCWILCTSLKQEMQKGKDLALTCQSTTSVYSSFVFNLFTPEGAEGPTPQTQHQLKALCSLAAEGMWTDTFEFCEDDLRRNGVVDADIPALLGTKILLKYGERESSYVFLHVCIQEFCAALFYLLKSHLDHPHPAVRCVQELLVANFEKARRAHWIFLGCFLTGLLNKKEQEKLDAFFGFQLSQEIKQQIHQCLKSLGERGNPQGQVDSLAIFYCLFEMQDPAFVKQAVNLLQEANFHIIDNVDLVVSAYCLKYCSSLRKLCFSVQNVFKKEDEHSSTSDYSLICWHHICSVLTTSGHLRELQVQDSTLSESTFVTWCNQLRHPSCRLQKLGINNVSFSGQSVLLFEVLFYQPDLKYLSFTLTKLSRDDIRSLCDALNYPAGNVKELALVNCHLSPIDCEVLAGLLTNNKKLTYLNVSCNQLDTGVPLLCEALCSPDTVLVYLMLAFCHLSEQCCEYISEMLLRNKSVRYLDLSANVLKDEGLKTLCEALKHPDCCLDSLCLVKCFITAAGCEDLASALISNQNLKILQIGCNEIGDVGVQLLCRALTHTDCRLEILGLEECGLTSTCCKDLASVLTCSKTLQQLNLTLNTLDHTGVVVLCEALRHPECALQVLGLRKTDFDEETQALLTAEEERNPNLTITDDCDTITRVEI
UniProt Q9NRC8: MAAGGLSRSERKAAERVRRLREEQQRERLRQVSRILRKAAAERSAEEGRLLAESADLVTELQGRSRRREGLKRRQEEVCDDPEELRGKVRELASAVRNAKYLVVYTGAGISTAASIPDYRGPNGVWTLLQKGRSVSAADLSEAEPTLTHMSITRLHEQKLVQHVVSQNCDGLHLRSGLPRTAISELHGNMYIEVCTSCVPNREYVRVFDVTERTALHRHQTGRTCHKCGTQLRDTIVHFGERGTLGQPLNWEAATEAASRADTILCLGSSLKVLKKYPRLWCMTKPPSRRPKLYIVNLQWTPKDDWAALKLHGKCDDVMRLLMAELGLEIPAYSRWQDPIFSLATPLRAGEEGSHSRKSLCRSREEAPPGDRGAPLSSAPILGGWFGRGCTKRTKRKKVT

Biological target: Flag-NLRP4 (human) (UniProt Q96MN2)
Experiment: affinity purification with mass spectrometry; lysate with overexpressed Flag-NLRP4 incubated with Flag antibodies and protein A/G Sepharose beads overnight at 4 °C; bound proteins digested with trypsin, nano-LC-MS/MS

- binding: binds
Substance: Sirt7 (from UniProt Q9NRC8 1-400)
